# No constants are given. Whether binding was seen depends on the method and setting. Some entries that bind do so weakly or less than the wild type.
# Sequences of proteins named here, by UniProt entry; tags and fusion partners are left off. Residues count along the entry.
# UniProt Q02763, residues 23-1124: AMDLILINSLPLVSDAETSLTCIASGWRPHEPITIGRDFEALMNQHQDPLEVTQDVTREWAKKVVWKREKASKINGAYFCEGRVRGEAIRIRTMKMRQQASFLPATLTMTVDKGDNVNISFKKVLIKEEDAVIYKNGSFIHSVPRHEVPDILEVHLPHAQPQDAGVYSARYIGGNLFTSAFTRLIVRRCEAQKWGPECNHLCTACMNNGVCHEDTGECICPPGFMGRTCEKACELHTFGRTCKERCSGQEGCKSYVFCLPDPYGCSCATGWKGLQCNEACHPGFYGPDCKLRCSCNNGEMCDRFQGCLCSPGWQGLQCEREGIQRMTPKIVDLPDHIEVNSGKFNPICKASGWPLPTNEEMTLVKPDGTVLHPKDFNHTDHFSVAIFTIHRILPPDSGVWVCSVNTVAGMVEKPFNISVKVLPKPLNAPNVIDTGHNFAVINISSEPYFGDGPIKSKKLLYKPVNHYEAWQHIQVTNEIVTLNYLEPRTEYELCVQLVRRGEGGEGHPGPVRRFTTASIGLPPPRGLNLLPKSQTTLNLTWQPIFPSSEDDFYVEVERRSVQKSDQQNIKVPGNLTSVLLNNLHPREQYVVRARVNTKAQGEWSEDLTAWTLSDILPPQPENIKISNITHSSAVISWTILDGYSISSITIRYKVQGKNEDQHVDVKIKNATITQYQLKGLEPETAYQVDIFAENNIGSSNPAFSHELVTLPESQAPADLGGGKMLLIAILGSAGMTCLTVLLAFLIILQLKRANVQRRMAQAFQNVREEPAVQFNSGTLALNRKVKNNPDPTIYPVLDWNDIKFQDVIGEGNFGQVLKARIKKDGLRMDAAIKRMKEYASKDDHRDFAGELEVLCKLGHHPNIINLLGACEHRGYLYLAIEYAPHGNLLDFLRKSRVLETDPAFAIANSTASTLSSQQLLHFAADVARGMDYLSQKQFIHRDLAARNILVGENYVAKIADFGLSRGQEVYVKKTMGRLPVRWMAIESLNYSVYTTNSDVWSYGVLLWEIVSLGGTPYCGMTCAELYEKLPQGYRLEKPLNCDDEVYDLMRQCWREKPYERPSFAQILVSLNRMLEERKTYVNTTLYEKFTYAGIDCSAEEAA
# Key:
# Dok-R protein [1] = target: T1, Dok-R protein (UniProt O60496); assay: association in stably transfected Tie2-U-251 MG cells after Ang1 stimulation (method not detailed)
# T1 sequence (looked up): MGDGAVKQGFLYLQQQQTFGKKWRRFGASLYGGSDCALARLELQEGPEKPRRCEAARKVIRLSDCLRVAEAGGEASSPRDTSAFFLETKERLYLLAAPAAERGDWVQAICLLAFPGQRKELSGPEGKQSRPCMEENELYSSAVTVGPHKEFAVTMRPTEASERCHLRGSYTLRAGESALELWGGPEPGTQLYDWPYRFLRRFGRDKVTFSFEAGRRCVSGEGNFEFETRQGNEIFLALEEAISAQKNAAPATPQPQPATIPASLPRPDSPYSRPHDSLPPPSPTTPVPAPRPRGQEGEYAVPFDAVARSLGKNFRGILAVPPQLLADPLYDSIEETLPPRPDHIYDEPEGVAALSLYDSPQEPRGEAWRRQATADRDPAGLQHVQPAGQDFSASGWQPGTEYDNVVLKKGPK
# Dok-R protein [2] = target: T1, Dok-R protein; assay: restatement of the inventors' finding in glioma cells
substance,measurement,setting,value
Tie2 receptor (on or in glioma and endothelial cells) (from UniProt Q02763 23-1124),binding,Dok-R protein [1],binds
same,binding,Dok-R protein [2],binds
